Experimental data: PubChem BioAssay AID652243 (Drosophila RNAi Screening Center, 2013)
The deposit covers about 24,000 reagents; below is a random part of those with a known target gene and a result. In the full data, 246 (1%) are marked active. 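Plates not normalised; calls are printed but the firefly/Renilla ratio behind them is not deposited; fold cut for lowering reported inconsistently.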 Raw values vary from plate to plate and are shown uncorrected. Names joined by + are all predicted targets of the reagent. The record does not give: the amount of reagent.

- Assay: 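Knock-downs that decrease or increase androgen receptor reporter signal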 (primary screen)
- Cells: Drosophila S2R+ cells
- Reagents: long dsRNA against Drosophila genes
- Duration: 72 h (48 h, then 24 h hormone)
- Challenge: synthetic androgen R1881 at 10 nM for 24 h
- Detection: 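Firefly light from an androgen-responsive reporter and Renilla control light per well, raw and unnormalised, for each of two replicates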
- Scale: firefly reporter light: higher = more light from androgen-responsive reporter; Renilla control light: higher = more constitutive control signal (cell number, transfection)
- Hit rule: 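Hit when the log firefly-to-Renilla ratio dropped or increased by a fixed fold versus the mean of GFP or LacZ controls across duplicate plates; lowering cut given as 1.5 and as 3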
- Meaning of the calls: active = hit: reporter lowered or raised; inactive = no hit

Gene | DRSC id | firefly reporter light, replicate 1 | firefly reporter light, replicate 2 | Renilla control light, replicate 1 | Renilla control light, replicate 2 | Call
CG7544 | DRSC07023 | 4.88e5 | 4.78e5 | 2.45e6 | 4.27e6 | inactive
CG31642 | DRSC02919 | 4.57e5 | 7.20e5 | 1.03e6 | 1.19e6 | inactive
CG31642 | DRSC26391 | 2.19e5 | 2.17e5 | 6.78e5 | 5.54e5 | inactive
Ntf-2r | DRSC02019 | 2.42e5 | 1.91e5 | 1.04e6 | 1.06e6 | inactive
CG14823 | DRSC10194 | 1.10e6 | 8.21e5 | 1.74e6 | 1.39e6 | inactive
Nup35 | DRSC19999 | 59057 | 75420 | 7.11e5 | 9.62e5 | active
CG8136 | DRSC16385 | 1.82e5 | 1.79e5 | 1.81e6 | 2.06e6 | inactive
CG8136 | DRSC28135 | 5.20e5 | 4.70e5 | 1.51e6 | 1.33e6 | inactive
zip | DRSC04725 | 3.66e5 | 4.80e5 | 2.45e6 | 2.44e6 | inactive
zip | DRSC22489 | 9.60e5 | 1.08e6 | 6.51e5 | 7.37e5 | inactive
zip | DRSC28416 | 3.64e5 | 8.20e5 | 1.01e6 | 1.62e6 | inactive
CG17528 | DRSC07761 | 1.09e5 | 1.09e5 | 1.35e6 | 9.48e5 | inactive
CG17528 | DRSC36855 | – | – | – | – | inactive
CG17528 | DRSC36856 | – | – | – | – | inactive
CG15262 | DRSC01975 | 97939 | 1.62e5 | 1.31e6 | 1.66e6 | inactive
Vsx2 | DRSC18088 | 3.51e5 | 5.35e5 | 2.85e6 | 2.45e6 | inactive
Vsx2 | DRSC23089 | 8.20e5 | 8.63e5 | 8.51e5 | 9.04e5 | inactive
Vsx2 | DRSC23273 | 5.53e5 | 6.59e5 | 8.72e5 | 9.96e5 | inactive
CG18808 | DRSC08539 | 1.49e5 | 1.28e5 | 1.47e6 | 1.54e6 | inactive
CG3246 | DRSC00584 | 1.02e5 | 94079 | 7.47e5 | 7.98e5 | inactive
Xport-A + Xport-B | DRSC15586 | 52713 | 70050 | 7.43e5 | 7.99e5 | inactive
CG43795 + SkpF | DRSC04120 | 2.61e5 | 2.06e5 | 1.86e6 | 1.36e6 | inactive
Orc1 | DRSC07496 | 4.69e5 | 4.80e5 | 1.65e6 | 3.22e6 | inactive
Nepl6 | DRSC03242 | 6.35e5 | 7.12e5 | 3.63e6 | 4.49e6 | inactive
Nepl6 | DRSC26260 | 2.75e5 | 3.73e5 | 9.22e5 | 9.80e5 | inactive
sac | DRSC12237 | 75623 | 1.13e5 | 2.19e6 | 1.80e6 | inactive
sac | DRSC27045 | 4.38e5 | 3.01e5 | 7.19e5 | 6.98e5 | inactive
CG5024 | DRSC15698 | 91685 | 1.63e5 | 2.02e6 | 1.93e6 | inactive
CG11381 | DRSC17780 | 7970 | 10291 | 4.14e5 | 2.95e5 | inactive
CG11381 | DRSC25125 | 7.44e5 | 5.85e5 | 8.82e5 | 8.40e5 | inactive
CG13727 | DRSC10055 | 3.33e5 | 3.71e5 | 3.97e6 | 3.19e6 | inactive
Ilp4 | DRSC10701 | 2.01e5 | 2.50e5 | 2.43e6 | 2.93e6 | inactive
Ilp4 | DRSC26585 | 2.42e5 | 2.58e5 | 3.07e5 | 4.56e5 | inactive
lncRNA:CR34047 | DRSC07857 | 3.20e5 | 3.26e5 | 2.91e6 | 2.64e6 | inactive
lncRNA:CR34047 | DRSC21689 | 6.39e5 | 5.49e5 | 2.49e6 | 2.09e6 | inactive
sm | DRSC05795 | 80390 | 85649 | 2.57e5 | 3.21e5 | inactive
sm | DRSC07686 | 1.45e6 | 1.51e6 | 2.08e6 | 1.25e6 | inactive
CG14767 | DRSC06500 | 9.51e5 | 6.49e5 | 2.08e6 | 1.20e6 | inactive
CG14767 | DRSC28418 | 6.10e5 | 7.66e5 | 7.32e5 | 8.71e5 | inactive
Rtel1 | DRSC18343 | 2.51e5 | 2.54e5 | 2.70e6 | 2.59e6 | inactive
Rtel1 | DRSC26293 | 2.67e5 | 2.99e5 | 5.85e5 | 5.28e5 | inactive
CG10628 | DRSC02080 | 1.08e5 | 1.39e5 | 9.68e5 | 1.55e6 | inactive
ND-20 | DRSC20164 | 1.06e5 | 98887 | 7.92e5 | 8.64e5 | inactive
CG17329 | DRSC01926 | 1.39e5 | 1.22e5 | 1.72e6 | 1.56e6 | inactive
CG17329 | DRSC28365 | 3.60e5 | 4.37e5 | 1.21e6 | 1.64e6 | inactive
YL-1 | DRSC02765 | 1.62e5 | 2.71e5 | 1.41e6 | 1.00e6 | inactive
YL-1 | DRSC23798 | 6.63e5 | 8.05e5 | 6.58e5 | 7.46e5 | inactive
CG9147 | DRSC03147 | 2.08e5 | 1.15e5 | 2.09e6 | 1.26e6 | inactive
CG9147 | DRSC27889 | 7.06e5 | 4.32e5 | 2.35e6 | 1.67e6 | inactive
Or47a | DRSC07491 | 2.45e5 | 2.54e5 | 1.21e6 | 1.41e6 | inactive
CG8939 | DRSC20127 | 74978 | 56473 | 4.71e5 | 5.93e5 | inactive
MBD-R2 | DRSC14180 | 88577 | 1.30e5 | 1.80e6 | 2.16e6 | inactive
CG33271 | DRSC10583 | 8.63e5 | 4.79e5 | 2.68e6 | 1.70e6 | inactive
bocks | DRSC16489 | 47355 | 39307 | 3.36e5 | 3.60e5 | inactive
sas | DRSC12631 | 1.11e5 | 1.41e5 | 2.96e6 | 2.70e6 | inactive
rudhira | DRSC22111 | 5.18e5 | 5.97e5 | 2.25e6 | 1.70e6 | inactive
rudhira | DRSC23144 | 7.20e5 | 1.11e6 | 1.81e6 | 2.55e6 | inactive
rudhira | DRSC24869 | 1.07e6 | 1.23e6 | 1.07e6 | 1.59e6 | inactive
CG31493 | DRSC12583 | 78661 | 1.15e5 | 4.74e5 | 5.51e5 | inactive
CG5188 | DRSC02826 | 1.09e5 | 52406 | 1.08e6 | 8.18e5 | inactive
18w | DRSC05029 | 8.28e5 | 6.07e5 | 1.94e6 | 1.23e6 | inactive
18w | DRSC29700 | 4.15e5 | 2.84e5 | 1.22e6 | 9.60e5 | inactive
RpL24-like | DRSC16111 | 1.01e5 | 1.47e5 | 2.28e6 | 2.30e6 | inactive
CG15514 | DRSC15053 | 75315 | 55353 | 8.72e5 | 6.19e5 | inactive
CG15514 | DRSC29785 | 3.73e5 | 3.26e5 | 1.00e6 | 1.24e6 | inactive
CG31262 | DRSC13216 | 1.38e5 | 53301 | 1.55e5 | 1.42e5 | inactive
Sgf11 | DRSC09987 | 2.54e5 | 1.67e5 | 2.66e6 | 1.44e6 | inactive
CG15237 | DRSC04971 | 2.54e5 | 2.27e5 | 2.20e6 | 1.68e6 | inactive
ATPsynD | DRSC14093 | 2.41e5 | 2.46e5 | 2.02e6 | 2.20e6 | inactive
ATPsynD | DRSC26487 | 1.07e5 | 62682 | 1.33e5 | 85726 | inactive
CG32816 | DRSC17337 | 9.68e5 | 4.68e5 | 1.19e6 | 5.26e5 | inactive
CG31780 + CG18477 | DRSC26122 | 2.55e5 | 2.53e5 | 8.42e5 | 7.40e5 | inactive
mmd | DRSC19673 | 3.98e5 | 2.94e5 | 2.56e6 | 2.13e6 | inactive
mmd | DRSC20161 | 4.94e5 | 3.76e5 | 3.12e6 | 2.53e6 | inactive
mmd | DRSC23042 | 6.58e5 | 8.20e5 | 1.80e6 | 1.77e6 | inactive

3 neighbouring entries already listed:
Gene | DRSC id | firefly reporter light, replicate 1 | firefly reporter light, replicate 2 | Renilla control light, replicate 1 | Renilla control light, replicate 2 | Call
RpL24-like | DRSC16111 | 1.01e5 | 1.47e5 | 2.28e6 | 2.30e6 | inactive
CG15514 | DRSC15053 | 75315 | 55353 | 8.72e5 | 6.19e5 | inactive
CG15514 | DRSC29785 | 3.73e5 | 3.26e5 | 1.00e6 | 1.24e6 | inactive
